# Taken from: PubChem BioAssay AID652243 (Drosophila RNAi Screening Center, 2013)
# Aim: 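Fly genes required for human androgen receptor driven transcription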 (primary screen)
# System: Drosophila S2R+ cells
# Reagents: long dsRNA against Drosophila genes
# Duration: 72 h (48 h, then 24 h hormone)
# Challenge: synthetic androgen R1881 at 10 nM for 24 h
# Detection: 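Firefly light from an androgen-responsive reporter and Renilla control light per well, raw and unnormalised, for each of two replicates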
# Scale: firefly reporter light: higher = more light from androgen-responsive reporter; Renilla control light: higher = more constitutive control signal (cell number, transfection)
# Rule for the call: 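Hit when the log firefly-to-Renilla ratio dropped or increased by a fixed fold versus the mean of GFP or LacZ controls across duplicate plates; lowering cut given as 1.5 and as 3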
# Calls: active = hit: reporter lowered or raised; inactive = no hit
# The screen tested about 24,000 reagents; below is an unselected part of those that have a named target and a result. In the full data, 246 (1%) are marked active. 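Plates not normalised; calls are printed but the firefly/Renilla ratio behind them is not deposited; fold cut for lowering reported inconsistently.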 Raw values are not corrected between plates. The numbers tell different reagents against one gene apart. A plus sign joins genes that one reagent is predicted to hit. The record does not give: the amount of reagent.
Gene,reagent no.,"firefly reporter light, replicate 1","firefly reporter light, replicate 2","Renilla control light, replicate 1","Renilla control light, replicate 2",outcome
Cyp4p2 (GeneID 35946),1,1.24e6,1.25e6,1.64e6,1.04e6,inactive
Cyp4p2 (GeneID 35946),2,4.01e5,3.46e5,3.98e5,4.15e5,inactive
IntS3 (GeneID 3355010),1,1.40e5,1.08e5,2.92e5,3.91e5,inactive
CG33178 (GeneID 318913),1,4.71e5,5.53e5,3.09e6,3.27e6,inactive
Pal1 (GeneID 36033),1,1.35e6,8.88e5,1.80e6,1.19e6,inactive
CG6665 (GeneID 36903),1,4.11e5,4.64e5,3.98e5,3.65e5,inactive
geko (GeneID 50263),1,2.20e5,1.93e5,2.34e6,2.15e6,inactive
geko (GeneID 50263),2,2.43e5,2.66e5,2.74e6,3.88e6,inactive
CG7565 (GeneID 38893),1,7.04e5,6.39e5,1.22e6,1.27e6,inactive
CG34248 (GeneID 5740883),1,3.70e5,1.47e5,2.48e5,1.12e5,inactive
CG34355 (GeneID 42820),1,3.71e5,3.03e5,3.16e6,2.27e6,inactive
CG34355 (GeneID 42820),2,2.17e5,2.35e5,2.96e6,2.59e6,inactive
CG34355 (GeneID 42820),3,2.14e5,2.11e5,2.09e6,2.72e6,inactive
CG34355 (GeneID 42820),4,5.65e5,5.81e5,2.28e6,2.70e6,inactive
CG3795 (GeneID 31128),1,1.15e5,95714,7.92e5,6.06e5,inactive
CG3795 (GeneID 31128),2,8.61e5,8.80e5,1.21e6,1.34e6,inactive
CG4942 (GeneID 39044),1,1.11e6,9.78e5,1.61e6,1.86e6,inactive
CG41020 (retired record) (GeneID 5740564),1,9.66e5,8.07e5,1.74e6,1.62e6,inactive
Gat (GeneID 43805),1,4.05e5,3.20e5,3.03e6,2.05e6,inactive
Nop56 (GeneID 42633),1,49343,49796,3.68e5,3.95e5,inactive
KCNQ (GeneID 36071),1,1.88e5,1.06e5,1.64e6,1.05e6,active
KCNQ (GeneID 36071),2,3.05e5,1.54e5,1.99e6,1.63e6,inactive
KCNQ (GeneID 36071),3,3.86e5,4.06e5,3.19e5,3.41e5,inactive
CG1428 (GeneID 35433),1,1.89e5,2.31e5,1.46e6,1.29e6,inactive
Ald1 (GeneID 43183),1,60186,66401,3.89e5,4.32e5,inactive
Ald1 (GeneID 43183),2,5.95e5,9.29e5,6.99e5,6.86e5,inactive
Atac1 (GeneID 33977),1,78626,1.97e5,1.10e6,1.61e6,inactive
CG14330 (GeneID 42102),1,2.17e5,1.60e5,2.32e6,2.42e6,inactive
CG13148 (GeneID 36398),1,3.53e5,2.13e5,1.59e6,1.40e6,inactive
red (GeneID 41738),1,7.96e5,5.22e5,9.13e5,7.02e5,inactive
Tsp42Ej (GeneID 35620),1,9.87e5,9.39e5,1.38e6,1.35e6,inactive
Tsp42Ej (GeneID 35620),2,4.01e5,8.11e5,8.86e5,1.57e6,inactive
CG6696 (GeneID 32856),1,1.62e5,1.07e5,8.52e5,3.30e5,inactive
CG6696 (GeneID 32856),2,7.88e5,8.87e5,7.51e5,9.08e5,inactive
CG10139 (GeneID 36626),1,1.15e6,1.10e6,8.28e5,8.15e5,inactive
Dic3 (GeneID 35763),1,3.77e5,3.42e5,2.20e6,2.48e6,inactive
CG30100 + CG42372,1,7.09e5,5.10e5,1.43e6,1.40e6,inactive
pre-mod(mdg4)-W + pre-mod(mdg4)-Y + mod(mdg4) + 3 more,1,2.37e5,2.59e5,3.46e6,3.43e6,inactive
mRRF1 (GeneID 39067),1,6.31e5,4.13e5,9.85e5,6.05e5,inactive
Gr22d (GeneID 14462661),1,5.95e5,5.27e5,3.03e6,2.15e6,inactive
Gr22d (GeneID 14462661),2,3.71e5,4.19e5,1.18e6,9.03e5,inactive
CG13082 (GeneID 35244),1,75480,92474,1.26e6,1.52e6,inactive
CG13082 (GeneID 35244),2,3.68e5,4.26e5,5.08e5,5.48e5,inactive
CG10307 (GeneID 37477),1,1.06e6,1.33e6,2.54e6,2.58e6,inactive
CG10307 (GeneID 37477),2,2.43e5,2.40e5,7.25e5,6.68e5,inactive
CG34005 (GeneID 3885597),1,1.11e6,1.02e6,2.24e6,1.77e6,inactive
dsd (GeneID 43315),1,1.15e5,2.06e5,2.27e5,2.86e5,inactive
dsd (GeneID 43315),2,88620,1.21e5,8.74e5,9.49e5,inactive
Vap33 (GeneID 31349),1,1.29e5,90719,1.24e6,7.48e5,inactive
CG9903 (GeneID 32621),1,3.67e5,3.15e5,2.47e6,2.43e6,inactive
CG7720 (GeneID 42257),1,1.24e5,1.20e5,9.22e5,1.02e6,inactive
CG7720 (GeneID 42257),2,4.82e5,7.26e5,2.48e6,3.20e6,inactive
IntS6 (GeneID 31496),1,94878,1.65e5,6.70e5,4.37e5,inactive
IntS6 (GeneID 31496),2,2.08e6,1.34e6,1.48e6,1.21e6,inactive
FER (GeneID 41118),1,1.30e5,54548,1.91e5,1.04e5,inactive
FER (GeneID 41118),2,49957,1.10e5,1.62e6,9.43e5,inactive
FER (GeneID 41118),3,4.43e5,2.23e5,1.30e6,1.04e6,inactive
FER (GeneID 41118),4,,,,,inactive
